From patent US20240165135A1, “COMPOSITIONS AND METHODS FOR THE TREATMENT OF CANCER” (The State of Israel, Ministry of Agriculture & Rural …, priority 2021, published 2024)
For at least one compound, name, drawing or mass did not settle the structure.

Test system: A172 GBM cells
Test: XTT cell viability assay on A172
Assay type: cell-based, Human
Conditions: up to 50 μg/mL, 48 hours
Description: Cell cultures—Human glioblastoma A172 (ATCC®CRL-1620™) was cultured in DMEM (01-055-1A, Biological Industries, Israel) and U87MG (U87; ATCC®HTB-14™) in EMEM (01-058-1A; Biological Industries, Israel). Both media were supplemented with 10% fetal bovine serum (FBS, 04-127-1A, Biological Industries, Israel), 1% Pen-Strep, 1% L-Glutamine and 0.02% plasmocin (i.e., complete medium). Cells were incubated at 37° C. in a humidified atmosphere containing 5% CO2—95% air. Serum free media (SFM) was composed of DMEM/F12 (01-170-1A; Biological Industries, Israel), including all the supplements above except for FBS. Neurosphere media for A172 was composed of SFM with 2% B-27; Neurosphere media for U87 was serum-free EMEM without B27. For Glioblastoma stem cells (GSCs) cultures all human materials were used in accordance with the policies of the Henry Ford Hospital Institutional Review Board. Generation of GSCs from fresh GBM specimens and their characterization have been recently described. […]
Cell viability assays—Cells were seeded in 96-well plates at density of 2×10^4 per well (100 μL/well) in SFM (for A172) or complete medium (for U87) and were incubated at 37° C. overnight to allow attachment. […] Absorbance was recorded by a Synergy H1 hybrid reader photometer (BioTek) at 490 nm with 650 nm of reference wavelength. […]

## Cn1nnc2c(C(N)=O)ncn2c1=O [TMZ, temozolomide]
  effect on A172 viability / cell death: did not lead to substantial A172 cell death
